The source of these data is PubChem BioAssay AID1487 (National Center for Advancing Translational Sciences (NCATS), 2009).

For orientation: AC50 means the concentration giving half of the maximal activity seen.

SMILES strings stand for the structures. Where “and” joins values, the source holds several entries; their conditions need not be identical. Equal entries are not always repeated. The list shows a part of the results. Further columns of the screen follow, without active or inactive calls. Compounds called inactive in the main read-out are mostly missing here. Words in brackets tell the shape of the fitted curve; partial curves, single points and poor fits give uncertain potencies.

The assay can be described thus: qHTS Assay for Modulators of Lamin A Splicing. The note with it: HeLa LMNA splicing GFP/RFP minigene ratio, 48 h. The method in brief:
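S3 HeLa stable clones carrying a lamin A-EGFP splicing minigene plus DsRed2 were seeded at 600 cells/well in Opti-MEM with 2% FBS, pin-dosed and incubated 48 h at 37°C. Acumen cytometry (488 nm) gave the GFP/RFP total-intensity ratio.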
In general terms: qHTS replaces the single test concentration by a dilution series.

Where [1] appears, read: measured here: GFP splicing reporter channel.
Setting [2] is: measured here: RFP viability control channel.

Turning to `N#Cc1ccc(NCCc2ccccn2)c([N+](=O)[O-])c1`, the concentration at half-maximal activity (AC50) runs as follows: under setting [1], 5.62 µM [rising, single point]; under setting [2], 14.1 µM [falling, single point].

Take `COc1ccc(CNC(=O)CN(c2ccccc2)S(=O)(=O)c2ccccc2[N+](=O)[O-])cc1`: the AC50 reads like this: under setting [1], 22.4 µM [falling, single point]; under setting [2], 35.5 µM [falling, partial curve]. Regarding `CCN(CC)S(=O)(=O)c1ccc(Cl)c(NC(=O)COC(=O)c2cc(-c3ccccc3Cl)nc3ccccc23)c1`, the AC50 under setting [1] was 3.55 µM [rising, single point]. As for `O=C(c1ccc2c(c1)OCO2)C1CCCN(Cc2ccc3nsnc3c2)C1` (stereo not given), the AC50 under setting [1] is 15.8 µM [falling, partial curve, poor fit] and the AC50 under setting [2] is 22.4 µM [falling, partial curve, poor fit]. For the compound `Cc1cc(Cl)ccc1NC(=S)NCCC(c1ccccc1)c1ccccc1`, the AC50 under setting [2] is 35.5 µM [rising, single point]. On to `COc1cc2c(cc1OC)C1Cc3ccc(OC)c(OC)c3CN1CC2` (stereo not given), for which, under setting [2], the AC50 is 14.1 µM [rising, partial curve]. For the compound `COc1ccc(/C=N/Nc2nc3ccccc3[nH]2)cc1OC`, the AC50 under setting [2] is 12.6 µM [rising, partial curve]. For `CC(C)(C)c1ccc(C(=O)Nc2ccc(N3CCOCC3)cc2)cc1`, the AC50 was 35.5 µM [rising, single point] under setting [1] and 35.5 µM [rising, single point] under setting [2]. Regarding `Cc1cccc(/C(N)=N/OC(=O)Cc2ccccc2)c1`, the AC50 under setting [1] was 1.26 µM [rising, partial curve]. For the compound `COc1ccc(S(=O)(=O)N2CCOCC2)cc1NC(=O)c1cc2c(s1)CCCC2`, the AC50 was 12.6 µM [rising, single point] under setting [1] and 17.8 µM [rising, partial curve, poor fit] under setting [2].

As for `COC(=O)c1[nH]c2c(c1C)C(=O)CC(c1cc(OC)ccc1OC)C2` (stereo not given), the AC50 under setting [2] was 8.91 µM [rising, partial curve]. In the case of `CCNc1nc(NCC)nc(SCCOC(=O)Nc2ccc(Cl)cc2Cl)n1`, the AC50 under setting [1] was 31.6 µM [rising, single point].

Consider `Cc1cc(C)c2cc(C#N)c(NCCNC(=S)NCCCN3CCOCC3)nc2c1`, for which the AC50 under setting [1] is 3.16 µM [falling, partial curve, poor fit]. As to `O=C(COc1ccccc1C(=O)NCC1CCCO1)Nc1ccc(Cl)cc1Cl` (stereo not given), the AC50 reads like this: under setting [1], 22.4 µM [falling, single point]; under setting [2], 35.5 µM [falling, single point]. As to `COc1cc(NC(=O)c2ccco2)c(OC)cc1NC(=O)c1cc(OC)c(OC)c(OC)c1`, the AC50 under setting [2] was 20 µM [rising, single point]. In the case of `CC(C)(C)c1ccc(Cn2c(=N)n(CC(O)c3ccco3)c3ccccc32)cc1` (stereo not given), the AC50 reads like this: under setting [1], 15.8 µM [falling, partial curve]; under setting [2], 20 µM [falling, partial curve, poor fit]. For `COc1ccc(-c2nc(CCNS(=O)(=O)c3ccc4c(c3)OCCO4)cs2)cc1`, under setting [2], the AC50 is 11.2 µM [rising, partial curve]. As to `Oc1ccc(/C=C/c2cc(O)cc(O)c2)cc1`, the AC50 under setting [1] was 10 µM [falling, partial curve] and 25.1 µM [falling, single point]; the AC50 under setting [2] is 5.01 nM [falling, full curve, poor fit] and 35.5 µM [rising, single point]. Turning to `O=C(O)c1cccc(N2C(=O)/C(=C/c3ccc(SCc4ccc(Cl)cc4)o3)SC2=S)c1`, the concentration at half-maximal activity (AC50) under setting [2] is 14.1 µM [rising, partial curve, poor fit]. In the case of `CCOC(=O)N1CCN(C(c2cccnc2)c2ccc3cccnc3c2O)CC1` (stereo not given), the AC50 is, setting by setting: under setting [1], 7.08 µM [falling, single point]; under setting [2], 12.6 µM [falling, partial curve, poor fit]. As for `CC(C)CNS(=O)(=O)c1ccc(CCC(=O)N2CCN(Cc3ccccc3)CC2)cc1`, under setting [2], the AC50 is 3.16 µM [rising, single point]. For `CCCCCOC(=O)Cn1c(=O)c2c(nc(N3CCOCC3)n2C)n(C)c1=O`, the AC50 under setting [2] was 0.0562 µM [falling, full curve, poor fit]. The same measure, in the same setting: under `O=C(Nc1ccc2c(c1)oc1ccccc12)C1CC1` stands 3.16 µM [rising, partial curve, poor fit]; under `O=C(N/N=C/c1cccc([N+](=O)[O-])c1)c1ccc(Br)cc1`, 12.6 µM [falling, partial curve, poor fit]. Consider `O=C(Nn1c(SCc2ccc(F)cc2)nc2ccsc2c1=O)c1ccccc1`, for which the AC50 under setting [2] was 31.6 µM [rising, single point].

Turning to `CCOc1ccc(/C=N/NC(=O)C(C)N(c2ccc(OC)cc2)S(C)(=O)=O)cc1` (stereo not given), the AC50 was 3.16 µM [falling, partial curve] under setting [1] and 2.82 µM [falling, partial curve] under setting [2]. Take `Cc1ccc2nc(NC(=O)CN(C)S(=O)(=O)c3cccc4nsnc34)sc2c1`: the AC50 under setting [2] is 2.82 µM [rising, single point]. In the case of `Cc1cc(C)cc(N=C2NC(=O)/C(=C/c3cccs3)S2)c1`, the AC50 runs as follows: under setting [1], 25.1 µM [rising, single point]; under setting [2], 35.5 µM [rising, single point]. Regarding `O=[N+]([O-])c1cccc(C2=NCCS2)c1`, the AC50 was 0.00501 µM [falling, full curve, poor fit] under setting [1] and 0.00447 µM [falling, full curve, poor fit] under setting [2].

Take `Cc1cc(Nc2ccccc2)c2c([N+](=O)[O-])c(C)cc(C)c2n1`: under setting [2], the AC50 was 35.5 µM [rising, single point]. Still for that read-out and setting: as for `Cc1ccc(/C=C/C(=O)N2CCN(S(=O)(=O)c3ccc(C)c(C)c3)CC2)o1`, the figure is 28.2 µM [rising, single point]. Take `Cc1ccc(SCc2noc(C(=O)NC(C)C)c2C(=O)O)cc1C`: under setting [1], the AC50 is 8.91 µM [falling, single point]. For the compound `Cc1cc(=O)oc2c3c4c(cc12)OCCN4CCC3`, the AC50 under setting [2] was 14.1 µM [rising, partial curve, poor fit]. Consider `COc1ccc(NC(=O)CC2C(=O)N(c3ccc(F)cc3)C(=S)N2NC(=O)c2ccc(Cl)cc2)cc1` (stereo not given), for which the AC50 was 17.8 µM [rising, partial curve] under setting [1] and 22.4 µM [rising, single point] under setting [2]. As to `Cc1ccc(S(=O)(=O)Nc2ccc3c(c2)OCCO3)cc1`, the AC50 under setting [2] is 0.158 µM [rising, full curve, poor fit].

With `CC(=O)c1c(C)[nH]c(C(=O)OCC(=O)Nc2sc3c(c2C#N)CCCC3)c1C`, the AC50 runs as follows: under setting [1], 0.891 µM [rising, full curve, poor fit]; under setting [2], 2.82 µM [rising, full curve].

Consider `CCOC(=O)C(C(=O)OCC)C(Nc1ccccc1)c1ccccc1` (stereo not given), for which, under setting [2], the AC50 is 10 µM [rising, partial curve, poor fit]. As to `COc1cc(C(=O)N2CCc3c([nH]c4ccccc34)C2c2ccc(C)cc2)cc(OC)c1OC` (stereo not given), the AC50 under setting [1] was 5.01 µM [falling, full curve, poor fit] and the AC50 under setting [2] was 3.98 µM [falling, full curve, poor fit]. Take `Cc1ccc(C)c(C(=O)COC(=O)c2cccc(N3C(=O)c4c(C)nc5ccccc5c4C3=O)c2)c1`: under setting [2], the AC50 was 0.0562 µM [rising, full curve, poor fit]. `Cn1c(/C=C/c2ccc([N+](=O)[O-])o2)nc2ccccc2c1=O`: the AC50 is 5.62 µM [falling, single point] under setting [1] and 5.62 µM [falling, single point] under setting [2].

With `COc1ccc(CNCCC(c2ccccc2)c2ccc3c(c2)OCO3)cc1` (stereo not given), the AC50 was 35.5 µM [falling, single point] under setting [1] and 35.5 µM [falling, single point] under setting [2].

On to `O=C(/C=C/c1ccccc1Cl)c1ccc[nH]1`, for which the AC50 under setting [2] is 14.1 µM [rising, single point].

`COc1ccccc1NC1=C(C)C(=O)CC1`: the AC50 under setting [2] was 35.5 µM [rising, single point].

For the compound `COc1cccc(OC)c1C(=O)NCCSC1CCCCC1`, the AC50 under setting [1] was 1.26 µM [rising, full curve]. The same measure, in the same setting: under `CC(C(=O)NN=C(c1ccccc1)c1ccccc1)N1CCCC1` (stereo not given) stands 0.316 µM [falling, partial curve, poor fit]. As for `CC(C)Oc1ccc(CNC(=O)CC(c2ccccc2)c2cc(Cl)ccc2O)cc1` (stereo not given), the AC50 is, setting by setting: under setting [1], 25.1 µM [falling, single point]; under setting [2], 28.2 µM [falling, single point]. As for `CCCCN(CC)C(=O)c1cc2cc3ccc(OC)cc3nc2o1`, the AC50 was 35.5 µM [rising, single point] under setting [1] and 31.6 µM [rising, single point] under setting [2].

For `CC(Sc1nnnn1C)C(=O)Nc1ccc2c(c1)OCCO2` (stereo not given), the AC50 under setting [2] is 1.12 µM [falling, full curve, poor fit]. Consider `CNc1nc(Nc2ccccc2)nc(OCC(F)(F)F)n1`, for which the AC50 reads like this: under setting [1], 2.24 µM [rising, partial curve, poor fit]; under setting [2], 1.26 µM [rising, full curve]. With `Cn1c2ccccc2c(=O)c2c(=O)n(C3CCCCCC3)c(C3CCCCC3)nc21`, the AC50 under setting [2] is 0.501 µM [rising, single point].

Take `COc1ccccc1-c1c(C)nn2c(N3CCCCCC3)cc(C)nc12`: the AC50 under setting [2] was 31.6 µM [rising, single point]. In the case of `COc1ccc(OCCSc2ncnc3nc[nH]c23)cc1`, under setting [2], the AC50 was 22.4 µM [rising, single point]. As to `Cc1ccc(C)c(NC(=O)CN(C)C(=O)CCN2C(=O)c3ccccc3C2=O)c1`, the AC50 is, setting by setting: under setting [1], 0.631 µM [falling, full curve, poor fit]; under setting [2], 0.501 µM [falling, full curve, poor fit]. As for `COc1cc(C2SCC(=O)N2CCN2CCCCC2)ccc1O` (stereo not given), under setting [1], the AC50 was 1.41 µM [rising, full curve, poor fit].
